# Results published in patent publication US20100239596A1, “GRP78 AND TUMOR ANGIOGENESIS” (UNIVERSITY OF SOUTHERN CALIFORNIA, priority 2007, published 2010).
# For at least one compound, name, drawing or mass did not settle the structure. Some entries share one result that the patent states for a list of compounds.
# Test system: TuBEC (tumor-associated brain endothelial cells)
# Type: cell-based
# Conditions: CPT-11 100 μM, Eto 50 μM, seven days
# Procedure: Cell death ELISA. EC were treated with etoposide (Calbiochem; La Jolla, Calif.), temozolomide (TMZ) (Schering-Plough; Kenilworth, N.J.), CPT-11 (Pharmacia; New York, N.Y.), the caspase inhibitor Q-VDOPH (Calbiochem), or EGCG (Sigma-Aldrich, St. Louis, Mo.), then assayed using the Cell Death Detection ELISA Plus kit (Roche Diagnostics; Indianapolis, Ind.) according to manufacturer's protocol. Percent death was calculated based on 100% positive cell death control.
# Lentiviral construct. The sequences of siRNA, the isolation of human Grp78 cDNA and their subcloning into lentiviral constructs are previously described (Dong et al, Cancer Res., 65:5785-91, 2005). The sequences of the siRNA against human GRP78 are: siGRP78A: 5′-[…]-3′ (SEQ ID NO:1) and siGRP78B: 5′-[…]-3′ (SEQ ID NO:2). […] The IRES sequence was inserted between the human GRP78 gene and the EGFP allowing hGRP78 expression to be monitored by EGFP fluorescence. […] Infected cells, monitored for GFP, were used when cultures were 100% GFP positive.
# To test whether GRP78 confers drug resistance to TuBEC, TuBEC cultures were infected with lentivirus expressing siGRP78A and siCtr1A. […] After treatment for seven days, the cells were analyzed for cytotoxicity.
# To target GRP78 through a small molecule approach, TuBEC were incubated with EGCG alone or in combination with TMZ, CPT-11, and Eto. Cytotoxicity was measured after seven days (FIG. 3D).
smiles,measurement,setting,value
Cn1nnc2c(C(N)=O)ncn2c1=O [temozolomide],"cell death, drug alone","TuBEC without siGRP78A, temozolomide 300 μM",< 10%
same,"TuBEC cell death, agent alone","TMZ 300 μM, EGCG 20 μM",did not cause TuBEC cell death
